Measured values from patent US20150064227A1, “Sporicidal Formulation Including Botanical Extracts/Botanical-Derived Ingredients” (priority 2011, published 2015).
At least one structure is not confirmed: it was looked up by name or label, or the drawing left a doubt.

Legend:
[1] = tested on: C. diff. spores (Clostridium difficile ATCC 43593); assay: Sporicidal Efficacy Test against C. diff. spores; format: cell-based; conditions: concentration not given
From the text: (§1) To determine the kill rate of solutions of interest against bacterial spores.
(§2) Materials: • 1. Test solutions of interest • 2. Clostridium difficile ATCC 43593 • 3. Geobacillus stearothermophilus CICC 10142 • 4. Filter sterilized MilliQ water • 5. Neutralization broth (prepared according to directions below) • 6. Brain Heart Infusion (BHI) agar plates with 0.15% Sodium Taurocholate • 7. Tryptic Soy Agar (TSA) plates • 8. Taurocholic acid sodium salt hydrate (Sigma-Aldrich T-4009) • 9. Phosphate buffered saline (PBS) pH 7.2 • 10. Fetal Bovine Serum (FBS) • 11. Sterile plating beads • 12. Sterile Eppendorf vials (1.5 mL) • 13. Sterile tubes (15 mL) • 14. Pipettes and sterile pipette tips (100 μL and 1000 μL) • 15. Incubator capable of 37±3° C. • 16. Anaerobic rectangular jar (7 Liter AnaeroPack System commercially available from Mitsubishi Gas Chemical Co.) with 3 GasPak satchels (BD GasPak EZ, #260678)
Procedure: • 1. Prepare culture stock of organism of interest to 10^7 CFU/ml in PBS. • 2. Thoroughly vortex the stock culture for ten minutes at medium-high speed. • 3. Dilute a small portion of the stock culture in MilliQ filter sterilized water and add FBS soil load to the inoculum to achieve a concentration of 5% v/v FBS. • 4. Place the inoculum in a sonicating water bath for five cycles of one minute on, one minute off • 5. […]

bacterial spores = assay: Sporicidal Efficacy Test, spore species not given; format: cell-based; conditions: under the Sporicidal Efficacy Test; concentration not given
From the text: as §1, §2
Procedure: • 1. Prepare culture stock of organism of interest to 10^7 CFU/ml in PBS. • 2. Thoroughly vortex the stock culture for ten minutes at medium-high speed. • 3. Dilute a small portion of the stock culture in MilliQ filter sterilized water and add FBS soil load to the inoculum to achieve a concentration of 5% v/v FBS. • 4. Place the inoculum in a sonicating water bath for five cycles of one minute on, one minute off • 5. Add 100 μL of spore culture to sterile vial containing 900 μL of test solution and vortex. • 6. After the test exposure time, vortex the vials. • 7. Transfer 100 μL of test solution and spore mixture to sterile tubes containing 900 μL neutralization broth to neutralize. • 8. Place the neutralized samples in a sonicating water bath for five cycles of one minute on, one minute off • 9. Vortex each tube. For C. difficile, pipette 100 μL of each neutralized sample on BHI+0.15% sodium taurocholate media plates (prepared in lab according to dehydrated powder instructions). For G. stearothermophilus, pipette 100 μL of each neutralized sample onto TSA plates. Spread using sterile beads. • 10. Prepare a control sample by adding the spore culture to 900 μL of filter sterilized MQ water and repeat steps 3-6 above. Dilute control code to achieve 10^2 CFU/ml. • 11. For C. difficile, place plates in anaerobic jars or boxes (with appropriate number of catalase pouches) or in the anaerobic chamber and incubate for 48±8 hours at 37±3° C. For G. stearothermophilus, incubate plates aerobically for 48±8 hours at […]. • 12. After incubation, enumerate colonies and record results. Calculate Log10 reduction by comparing the number of colonies recovered from the test solution versus those recovered with the control.
Neutralization Broth Preparation: • 1. Mix the following ingredients: • 1 L Letheen broth • 0.3% ppm Lecithin • 3% ppm Tween 80 • 0.1% ppm Histidine • 2. […]

Structure (SMILES) | sporicidal activity against C. diff. (in words) [1] | sporicidal activity (in words) (bacterial spores)
C[C@H]1COC2=C1C(=O)C(=O)c1c2ccc2c1CCCC2(C)C [Cryptotanshinone] | found to have sporicidal activity | demonstrated sporicidal activity
O=c1c(O[C@@H]2O[C@H](CO)[C@H](O)[C@H](O)[C@H]2O)c(-c2ccc(O)c(O)c2)oc2cc(O)cc(O)c12 [hyperoside] | – | None of these ingredients derived from botanical extracts illustrated sporicidal activity
O=c1c(O[C@@H]2O[C@H](CO)[C@@H](O)[C@H](O)[C@H]2O)c(-c2ccc(O)c(O)c2)oc2cc(O)cc(O)c12 [isoquercitrin] | – | None of these ingredients derived from botanical extracts illustrated sporicidal activity
CC(=O)c1c(O)c(C)c(O)c2c1OC1=CC(=O)C(C(C)=O)C(=O)C12C (centres unmarked) [usnic acid] | – | None of these botanical extracts illustrated sporicidal activity
